Consider 27 compounds from the supplement of paper PMC11348887.

Structures can show the parent of a compound that is named as a salt. The list shows a part of the results. Small differences around the control level are noise. Where a SMILES comes first, the peptide text is derived from it. [ ]: non-standard residue; d: D form.

What all share (details): 5 µM; treatment: days 7-14 after plating, readout day 21
In test [1] the test system is hPSC-derived cortical neurons (WA09). Briefly: nucleus area z-score vs screen plate; higher = larger nuclei (more mature).
Test [2] has the same test system. Briefly: total neurite length per nucleus (MAP2) z-score; higher = more neurite growth.
Test [3] shares this test system. Kind of test: nucleus roundness z-score vs screen plate; higher = rounder nuclei (more mature).
Test [4] has the same test system. Briefly: KCl-induced FOS+/EGR-1+ double-positive nuclei fraction z-score (KCl minus unstimulated); higher = stronger activity-induced IEG response.

`C[N+](C)(C)CCOC(N)=O` [Carbachol] came in with a nucleus area z-score in test [1] of 1.49. Also, the “total neurite length per nucleus (z-score)” value in test [2] was 1.33. Also, in test [3], the nucleus roundness z-score came to 0.388. Further, the “KCl-induced FOS+/EGR-1+ double-positive nuclei fraction z-score” value in test [4] was determined as 0.773.

`CC(C)[C@H](NC(=O)c1ccc2ccccc2n1)C(=O)N[C@@H](CC(=O)O)C(=O)COc1c(F)cccc1F`: the nucleus area z-score in test [1] is -0.514. The “total neurite length per nucleus (z-score)” value in test [2] is -0.15. This compound showed a nucleus roundness z-score in test [3] of -0.505. For the same compound, the “KCl-induced FOS+/EGR-1+ double-positive nuclei fraction z-score” value in test [4] was -0.325.

In test [1], `Cc1cn(-c2cc(NC(=O)c3ccc(C)c(Nc4nccc(-c5cnccn5)n4)c3)cc(C(F)(F)F)c2)cn1` [Radotinib] registered a nucleus area z-score of 1.15. Further, the “total neurite length per nucleus (z-score)” value in test [2] was 0.0116. In test [3], this compound came in with a nucleus roundness z-score of -0.466. Also, the “KCl-induced FOS+/EGR-1+ double-positive nuclei fraction z-score” value in test [4] is 0.0679.

`CNCCC(Oc1ccc(C(F)(F)F)cc1)c1ccccc1` (stereo not drawn) [Fluoxetine HCl] had a nucleus area z-score in test [1] of -0.283. In test [2], the “total neurite length per nucleus (z-score)” value is -1.11. This compound also yielded a nucleus roundness z-score in test [3] of -1.47. In test [4], the “KCl-induced FOS+/EGR-1+ double-positive nuclei fraction z-score” value is -1.48.

Turning to `COc1ccc([C@]2(C#N)CC[C@@H](C(=O)O)CC2)cc1OC1CCCC1` [Cilomilast], the nucleus area z-score in test [1] is -0.832. The “total neurite length per nucleus (z-score)” value in test [2] was found to be 0.705. For the same compound, the nucleus roundness z-score in test [3] was -0.904. Besides, the “KCl-induced FOS+/EGR-1+ double-positive nuclei fraction z-score” value in test [4] was -0.866.

In turn, `COc1ccccc1OCC(O)CN1CCN(CC(=O)Nc2c(C)cccc2C)CC1` (stereo not drawn) [Ranolazine] had a nucleus area z-score in test [1] of 0.767. Further, the “total neurite length per nucleus (z-score)” value in test [2] came to 0.371. In test [3], this compound came in with a nucleus roundness z-score of 0.843. Besides, the “KCl-induced FOS+/EGR-1+ double-positive nuclei fraction z-score” value in test [4] worked out at 0.356.

`O=C(NC[C@H](O)CN1CCc2ccccc2C1)c1ccnc(NC2CCC2)c1` showed a nucleus area z-score in test [1] of -0.567. Besides, the “total neurite length per nucleus (z-score)” value in test [2] was -1.03. This compound also had a nucleus roundness z-score in test [3] of -0.363. For the same compound, the “KCl-induced FOS+/EGR-1+ double-positive nuclei fraction z-score” value in test [4] is -0.0778.

In test [1], `CNC(=O)c1ccccc1Sc1ccc2c(/C=C/c3ccccn3)n[nH]c2c1` [Axitinib] yielded a nucleus area z-score of -1.22. Moreover, in test [2], the “total neurite length per nucleus (z-score)” value was 0.179. The same compound had a nucleus roundness z-score in test [3] of -4.19. The “KCl-induced FOS+/EGR-1+ double-positive nuclei fraction z-score” value in test [4] is -0.262.

In test [1], `COc1cc2ncnc(Nc3cccc(Cl)c3)c2cc1OC` [AG-1478 (Tyrphostin AG-1478)] returned a nucleus area z-score of 0.325. Further, the “total neurite length per nucleus (z-score)” value in test [2] is 0.0458. This compound also yielded a nucleus roundness z-score in test [3] of -0.11. For the same compound, the “KCl-induced FOS+/EGR-1+ double-positive nuclei fraction z-score” value in test [4] was found to be 1.52.

As to `Cc1noc(C)c1-c1ccc(-c2cc(C(N)=O)c(NC(N)=O)s2)c(O[C@H]2CCNC2)c1`, in test [1], the nucleus area z-score is -1.2. For the same compound, the “total neurite length per nucleus (z-score)” value in test [2] was -0.504. The same compound came in with a nucleus roundness z-score in test [3] of -0.22. In test [4], the “KCl-induced FOS+/EGR-1+ double-positive nuclei fraction z-score” value is 0.727.

`CCc1ccc(/C=C2/SC(=S)NC2=O)cc1` gave a nucleus area z-score in test [1] of 2.32. In test [2], the “total neurite length per nucleus (z-score)” value stood at 0.732. Further, in test [3], the nucleus roundness z-score was determined as 0.586. For the same compound, the “KCl-induced FOS+/EGR-1+ double-positive nuclei fraction z-score” value in test [4] came out at 0.131.

Take `C/C(=C\c1ccc(C(=O)O)cc1)c1ccc2c(c1)C(C)(C)CCC2(C)C` [TTNPB (Arotinoid Acid)]: the nucleus area z-score in test [1] was -0.881. Besides, in test [2], the “total neurite length per nucleus (z-score)” value is -0.393. The compound also registered a nucleus roundness z-score in test [3] of 0.599. Also, the “KCl-induced FOS+/EGR-1+ double-positive nuclei fraction z-score” value in test [4] was 1.52.

Consider `CNC(=O)c1ccc(C)c(-n2c(C)cc(OCc3ccc(F)cc3F)c(Br)c2=O)c1`, for which the nucleus area z-score in test [1] was determined as 1.15. For the same compound, in test [2], the “total neurite length per nucleus (z-score)” value was 0.0696. The compound further yielded a nucleus roundness z-score in test [3] of -0.11. In test [4], the “KCl-induced FOS+/EGR-1+ double-positive nuclei fraction z-score” value was 1.72.

As for `O=C(Nc1cc(Cl)cc2c1[nH]c1cnccc12)c1cccnc1`, the nucleus area z-score in test [1] was 1.66. Also, the “total neurite length per nucleus (z-score)” value in test [2] was -0.982. This compound returned a nucleus roundness z-score in test [3] of -0.243. Moreover, in test [4], the “KCl-induced FOS+/EGR-1+ double-positive nuclei fraction z-score” value is -0.427.

Regarding `CC(C)C[C@@H]1NC(=O)[C@@H](C(C)C)NC(=O)[C@@H]2CCCN2C(=O)[C@@H](CC(=O)O)NC(=O)[C@@H](Cc2c[nH]c3ccccc23)NC1=O` (cyclo(L[dW][dD]P[dV])), the nucleus area z-score in test [1] amounted to 0.154. The “total neurite length per nucleus (z-score)” value in test [2] stood at 0.573. Further, the nucleus roundness z-score in test [3] worked out at 0.386. Besides, the “KCl-induced FOS+/EGR-1+ double-positive nuclei fraction z-score” value in test [4] came out at 0.572.

In test [1], `OC(Cn1cncn1)(Cn1cncn1)c1ccc(F)cc1F` [Fluconazole] showed a nucleus area z-score of 0.515. Also, the “total neurite length per nucleus (z-score)” value in test [2] was found to be 0.237. Moreover, in test [3], the nucleus roundness z-score is -0.447. Besides, in test [4], the “KCl-induced FOS+/EGR-1+ double-positive nuclei fraction z-score” value turned out to be 0.414.

In test [1], `CNc1cc(-c2cccc(Cl)c2Cl)nc(N)n1` displayed a nucleus area z-score of -0.682. For the same compound, the “total neurite length per nucleus (z-score)” value in test [2] stood at 0.482. In addition, the nucleus roundness z-score in test [3] is 0.198. In test [4], the “KCl-induced FOS+/EGR-1+ double-positive nuclei fraction z-score” value was -0.547.

In turn, `CN(C)C(=O)Nc1cccc(-c2ccc(N(C)C)cc2)c1` [Atglistatin] gave a nucleus area z-score in test [1] of 0.152. Also, in test [2], the “total neurite length per nucleus (z-score)” value was 0.663. The nucleus roundness z-score in test [3] is -0.0644. The “KCl-induced FOS+/EGR-1+ double-positive nuclei fraction z-score” value in test [4] stood at 1.27.

With `c1cn2cc(-c3ccc4cn[nH]c4c3)nc(Nc3ccc(N4CCOCC4)cc3)c2n1`, the nucleus area z-score in test [1] was 0.415. In addition, the “total neurite length per nucleus (z-score)” value in test [2] is 0.476. The compound also had a nucleus roundness z-score in test [3] of 0.162. The “KCl-induced FOS+/EGR-1+ double-positive nuclei fraction z-score” value in test [4] is -0.0358.

`Nc1cccc2c1C(=O)N(C1CCC(=O)NC1=O)C2=O` (stereo not drawn) [Pomalidomide]: in test [1], the nucleus area z-score was 0.681. Further, the “total neurite length per nucleus (z-score)” value in test [2] came to 1.26. Further, in test [3], the nucleus roundness z-score is -0.829. In addition, the “KCl-induced FOS+/EGR-1+ double-positive nuclei fraction z-score” value in test [4] stood at 0.205.

In test [1], `O=C(O)c1cc(=O)c2c(OCC(O)COc3cccc4oc(C(=O)O)cc(=O)c34)cccc2o1` [Disodium Cromoglycate] gave a nucleus area z-score of -0.516. Also, the “total neurite length per nucleus (z-score)” value in test [2] was determined as 0.351. Further, the nucleus roundness z-score in test [3] was determined as 0.0193. Moreover, the “KCl-induced FOS+/EGR-1+ double-positive nuclei fraction z-score” value in test [4] came to 2.34.

`Cc1cc(C)c(CNC(=O)c2cc(-c3ccc(N4CCN(C)CC4)nc3)cc3c2c(C)cn3C(C)C)c(=O)[nH]1` registered a nucleus area z-score in test [1] of 8.42e-05. In addition, in test [2], the “total neurite length per nucleus (z-score)” value came out at 0.367. This compound registered a nucleus roundness z-score in test [3] of 0.595. In test [4], the “KCl-induced FOS+/EGR-1+ double-positive nuclei fraction z-score” value came out at 1.99.

For the compound `CCn1cc(C(=O)O)c(=O)c2cc(F)c(N3CCNC(C)C3)c(F)c21` (stereo not drawn) [Lomefloxacin HCl], in test [1], the nucleus area z-score came to 0.128. In addition, the “total neurite length per nucleus (z-score)” value in test [2] was determined as 0.307. For the same compound, in test [3], the nucleus roundness z-score was 0.205. In test [4], the “KCl-induced FOS+/EGR-1+ double-positive nuclei fraction z-score” value was 0.576.

`CCCCCCCCCCCC1=C(O)C(=O)C=C(O)C1=O` [Embelin]: the nucleus area z-score in test [1] was -0.289. Also, in test [2], the “total neurite length per nucleus (z-score)” value is -0.142. For the same compound, the nucleus roundness z-score in test [3] was 0.351. The “KCl-induced FOS+/EGR-1+ double-positive nuclei fraction z-score” value in test [4] was -0.281.

In test [1], `COc1ccc(-c2nc3cc(C4=NNC(=O)CC4C)ccc3[nH]2)cc1` (stereo not drawn) [Pimobendan] registered a nucleus area z-score of 0.656. The “total neurite length per nucleus (z-score)” value in test [2] was 1.35. The compound further gave a nucleus roundness z-score in test [3] of 0.358. The “KCl-induced FOS+/EGR-1+ double-positive nuclei fraction z-score” value in test [4] is 1.28.

`CC(C)OC(=O)[C@H](C)N[P@](=O)(OC[C@H]1O[C@@H](n2ccc(=O)[nH]c2=O)[C@](C)(F)[C@@H]1O)Oc1ccccc1` [Sofosbuvir (PSI-7977_ GS-7977)] displayed a nucleus area z-score in test [1] of 1.25. For the same compound, the “total neurite length per nucleus (z-score)” value in test [2] is -0.71. In addition, the nucleus roundness z-score in test [3] is 0.443. In test [4], the “KCl-induced FOS+/EGR-1+ double-positive nuclei fraction z-score” value is 2.63.

In test [1], `CN(C)[C@@H]1C(O)=C(C(N)=O)C(=O)[C@@]2(O)C(O)=C3C(=O)c4c(O)ccc(Cl)c4[C@@](C)(O)[C@H]3C[C@@H]12` [Chlortetracycline HCl] displayed a nucleus area z-score of -0.212. For the same compound, the “total neurite length per nucleus (z-score)” value in test [2] worked out at 1.19. In addition, the nucleus roundness z-score in test [3] is -0.0448. Further, in test [4], the “KCl-induced FOS+/EGR-1+ double-positive nuclei fraction z-score” value came out at 0.532.
